# Measured values reported in PubChem BioAssay AID587 (National Center for Advancing Translational Sciences (NCATS), 2007).
# The whole screen tested about 59,000 compounds, of which about 35 (0.06%) were called active. The inconclusive results got no clear call from the source; some entries with a clear call stand among them for comparison. Rule as the data show it: active = max dye-equivalent concentration above about 10 nM; inconclusive = between about 1.1 nM and that limit; inactive = weaker than that.
# Test: qHTS Assay for Spectroscopic Profiling in Texas Red Spectral Region
# Details: Compound fluorescence, Texas Red channel, 547/618 nm; hits give high values
# In short: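 qHTS profiling of intrinsic compound fluorescence; 100 mM Tris pH 8.0; 15 min RT; ex 547 / em 618 nm; response expressed as Texas Red dye-equivalent concentration from six-point plate standard.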
row,Compound,max dye-equivalent concentration
1,Cc1ccc(C2C(C#N)=C(N)Oc3n[nH]c(-c4cccs4)c32)s1 (stereo unspecified),inconclusive: 1.2 nM
2,O=S(=O)(c1ccc(F)c(F)c1)N1CCN(Cc2ccc3c(c2)OCO3)CC1,inconclusive: 1.3 nM
3,O=C(O)c1ccc2c(c1C(=O)O)C(=O)OC2(c1ccc(O)cc1)c1ccc(O)cc1,inactive
4,CCOC(=O)c1c(NC(=O)CNCCO)sc(C)c1C,inconclusive: 1.5 nM
5,COCCn1c(=O)c(C)nc2cnc(N3CCNCC3)nc21,inactive
6,O=C(CCCn1c(=S)[nH]c2ccc(Br)cc2c1=O)N1CCN(c2ccccn2)CC1,inconclusive: 1.9 nM
7,CC(=O)c1cccc(NC(=O)CN(Cc2ccccc2)S(C)(=O)=O)c1,inconclusive: 1.2 nM
8,O=C(Cn1cnc2c(nnn2Cc2ccc(F)cc2)c1=O)NCc1ccc2c(c1)OCO2,inconclusive: 1.3 nM
9,O=C(NCCN1CCN(c2ccccc2)CC1)C1CCN(S(=O)(=O)c2cccc3nonc23)CC1,inconclusive: 1.4 nM
10,N#CC1=C2Sc3ccccc3N2CCCC1=O,inconclusive: 1.6 nM
11,O=C(Cn1c(C(F)(F)F)nc2ccccc21)NCCN1CCCC1,inconclusive: 2.1 nM
12,O=C(CN1CCC(O)CC1)N1c2ccccc2C=Cc2ccccc21,inconclusive: 1.3 nM
13,CCOC(=O)N1CCC(n2c(=S)[nH]c3cc(OC)c(OC)cc3c2=O)CC1,inconclusive: 1.1 nM
14,COc1ccc(NC(=O)c2ccc(Cl)c(S(=O)(=O)N3CCc4ccccc4C3)c2)cn1,inconclusive: 1.5 nM
15,CCOC(=O)Nc1sc(C(=O)N(CC)CC)c(C)c1C(=O)OCC,inconclusive: 1.9 nM
16,COc1ccc2[nH]cc(C(O)CN3CCN(c4ccccc4)CC3)c2c1 (stereo unspecified),inconclusive: 1.2 nM
17,CCCCn1c(SCC(=O)Nc2ccc(OC)cc2)nc2ccc(N3CCOCC3)cc2c1=O,inconclusive: 1.2 nM
18,O=C(CN1CCCC1)NCC1(c2ccccc2)CCOCC1,inconclusive: 1.5 nM
19,CCOC(=O)CSc1nnc(CNc2ccccc2Cl)n1-c1ccccc1,inconclusive: 1.1 nM
20,O=C(NC1CCCC1)C1CCC(=O)N1C1CCCC1 (stereo unspecified),inconclusive: 2.4 nM
21,N#Cc1c2n(c3c(=O)n(Cc4ccccc4Cl)cnc13)CCCC2,inconclusive: 1.2 nM
22,COC(=O)CSc1nnc(-c2ccc(S(=O)(=O)N3CCC(C)CC3)cc2)o1,inconclusive: 2.1 nM

# In the list so far, these contain a thiophene ring, fused or not.
row,Compound,max dye-equivalent concentration
1,Cc1ccc(C2C(C#N)=C(N)Oc3n[nH]c(-c4cccs4)c32)s1 (stereo unspecified),inconclusive: 1.2 nM
4,CCOC(=O)c1c(NC(=O)CNCCO)sc(C)c1C,inconclusive: 1.5 nM
15,CCOC(=O)Nc1sc(C(=O)N(CC)CC)c(C)c1C(=O)OCC,inconclusive: 1.9 nM

# 3 of the compounds above, with tabs:
row	Compound	max dye-equivalent concentration
1	Cc1ccc(C2C(C#N)=C(N)Oc3n[nH]c(-c4cccs4)c32)s1 (stereo unspecified)	inconclusive: 1.2 nM
17	CCCCn1c(SCC(=O)Nc2ccc(OC)cc2)nc2ccc(N3CCOCC3)cc2c1=O	inconclusive: 1.2 nM
22	COC(=O)CSc1nnc(-c2ccc(S(=O)(=O)N3CCC(C)CC3)cc2)o1	inconclusive: 2.1 nM

# (cont.)

row,Compound,max dye-equivalent concentration
1,O=S1(=O)C=C(Sc2nnc(-c3ccccc3)o2)c2ccccc21,inconclusive: 1.7 nM
2,CCOC(=O)C1CCN(c2ncnc3c2oc2ccc(Cl)cc23)CC1,inconclusive: 2.1 nM
3,C=C(C)CSc1nc(N)c2c3c(sc2n1)CCC3,inactive
4,CCCn1cnc2c(c1=O)c1nc3ccccc3nc1n2Cc1ccccc1OC,inconclusive: 1.6 nM
5,Oc1ccc([C@@H]2CNCc3sccc32)cc1O,inactive
6,O=C(CCCSc1nc2ccccc2[nH]1)Nc1nnc(-c2ccccc2)o1,inconclusive: 1.2 nM
7,CC(=O)Nc1cccc2c1OCCO2,inconclusive: 1.2 nM
8,CCn1nccc1C(=O)NC1=C(C#N)CCC1,inconclusive: 1.2 nM
9,CCC(=O)Nc1ccc2nc(C)n(CC(=O)Nc3ccccc3)c(=O)c2c1,inconclusive: 1.3 nM
10,CCN(CC)CCn1c(=S)[nH]c2cc(Cl)ccc2c1=O,inconclusive: 1.7 nM
11,Cc1cccc(NC(=O)CSCc2c(C)noc2C)c1C,inconclusive: 1.2 nM
12,O=C(NC1CCCCCC1)C1CCCN(S(=O)(=O)c2cccs2)C1 (stereo unspecified),inconclusive: 1.5 nM
13,CN1C[C@H](c2ccccc2)C(O)([C@]2(c3ccccc3)CN(C)C[C@@H](c3ccccc3)C2=O)[C@H](c2ccccc2)C1 (stereo partly specified),inactive
14,CCOC(=O)c1sc(NC(=O)c2cc3c(C)nn(-c4ccccc4)c3s2)nc1C,inconclusive: 1.4 nM
15,COCCCn1cnc2oc3nc4ccccc4nc3c2c1=O,inconclusive: 1.4 nM
16,CN(C)c1ncc2nc(-c3ccc(F)cc3)c(=O)n(-c3ccccc3)c2n1,inactive
17,COCCNC(=O)CN(C(=O)CCC(=O)Nc1cc(C)on1)c1cccc(C)c1C,inconclusive: 1.1 nM
18,CCCn1c(=O)c2ccccc2n2c(SCC(=O)/C(C#N)=C(\C)N)nnc12,inconclusive: 1.3 nM
19,Cc1ccc(-c2nnn(CC(=O)NCC3COCCO3)n2)o1 (stereo unspecified),inconclusive: 1.6 nM
20,C=CC[C@@H](C(=O)O)c1ccccc1,inactive
21,C=C(C)COc1ccc(-c2nc(N)ncc2Oc2ccccc2OC)c(O)c1,inconclusive: 1.8 nM
22,Cc1cccc(-c2c3c(=O)n(C)c(=O)n(C)c3c3c(C)cc(C)nn23)c1,inactive

row,Compound,max dye-equivalent concentration
1,COC(=O)c1ccc(CSc2nnnn2-c2ccc(C)cc2C)o1,inconclusive: 1.2 nM
2,O=C(CSc1nnc(C2CC2)n1Cc1ccccc1)N1CCN(S(=O)(=O)c2ccccc2)CC1,inconclusive: 1.9 nM
3,COc1ccc(N(Cc2cc3ccccc3[nH]c2=O)C(=O)C2CCCO2)cc1 (stereo unspecified),inconclusive: 1.6 nM
4,CC(C)NC(=O)c1n[nH]c(=O)c2ccccc12,inconclusive: 1.2 nM
5,CCOc1cc(NC(=O)C2CCCO2)c(OCC)cc1NC(=O)C1CC1 (stereo unspecified),inconclusive: 1.9 nM
6,COc1ccccc1NC(=O)Cn1cnc2sc(C(=O)NCc3ccco3)c(C)c2c1=O,inconclusive: 1.1 nM
7,Clc1ccccc1OCCn1cnc2ccccc21,inconclusive: 1.1 nM
8,O=C(N1CCN(c2ccccn2)CC1)N1c2ccccc2Sc2ccccc21,inconclusive: 1.9 nM
9,O=C1C2=C(Nc3cc([N+](=O)[O-])ccc3N2)O[C@@H]1c1ccc([C@H]2OC3=C(Nc4ccc([N+](=O)[O-])cc4N3)C2=O)cc1,inactive
10,CCOC(=O)N1CCC(NC(=O)CCc2nc(-c3ccc(C)cc3)no2)CC1,inconclusive: 1.2 nM
11,O=C(NCN1C(=O)C2C3C=CC(C3)C2C1=O)Nc1ccccn1 (stereo unspecified),inconclusive: 1.2 nM
12,COCCN1C(=O)c2ccc(C(=O)O)cc2C1=O,inconclusive: 1.4 nM
13,CC(=O)Nc1ccc(S(=O)(=O)Nc2cccc(NC(=O)C(C)(C)C)c2)cc1,inconclusive: 1.1 nM
14,COC(=O)c1cnn(-c2ccc(C)c(C)c2)c1-n1cccc1,inconclusive: 1.9 nM
15,O=C(NC12CC3CC(CC(C3)C1)C2)c1ccc(=O)oc1,inconclusive: 1.3 nM
16,Nc1nonc1C(=O)NCCNC(=O)c1cccs1,inconclusive: 1.7 nM
17,COc1cc2[nH]c(=S)n(Cc3ccc(C)o3)c(=O)c2cc1OC,inconclusive: 1.7 nM
18,C=CCCCOc1ccc(C(=O)O)cc1,inconclusive: 1.5 nM
19,C[C@H]1[C@H](C)CC[C@@]2(C(=O)O)CC[C@]3(C)C(=CC[C@@H]4[C@@]5(C)CC[C@H](O)C(C)(C)[C@@H]5CC[C@@]43C)[C@@H]12,inactive
20,CC(=O)Nc1cccc(NC(=O)C2CCCN2C(=O)Nc2ccc(Cl)cc2)c1 (stereo unspecified),inconclusive: 1.4 nM
21,CC(=O)Nc1ccc(N2CCN(C(=O)c3cccs3)CC2)cc1,inconclusive: 1.1 nM
22,CN(C)CC/C=C1\c2ccccc2Sc2ccc(Cl)cc21,inconclusive: 1.2 nM

row,Compound,max dye-equivalent concentration
1,CC(C)(C)n1nnnc1C(c1cccnc1)N1CCN(C(=O)c2ccco2)CC1 (stereo unspecified),inconclusive: 1.3 nM
2,CCn1c(SCC(=O)Nc2ccc(NC(C)=O)cc2)nnc1C1CC1,inconclusive: 1.4 nM
3,Nc1c(C(=O)c2ccccc2)oc2ccc(Br)cc12,inconclusive: 1.5 nM
4,CC(C)C(c1nnnn1CCc1ccccc1)N1CCOCC1 (stereo unspecified),inconclusive: 2.1 nM
5,Cc1ccc(C)c(NC(=O)CSc2nnc([C@@H]3CCCN3C(=O)OC(C)(C)C)o2)c1,inconclusive: 2.7 nM
6,COc1ccccc1NC(=O)Cn1c(CN2CCCCC2)nc2ccccc2c1=O,inconclusive: 1.1 nM
7,CCN(CC)S(=O)(=O)c1cccc(-c2nnc(SCC(=O)c3cc(C)n(C)c3C)o2)c1,inconclusive: 1.1 nM
8,CCn1c(/N=C/c2c[nH]c3ccccc23)nc2ccccc21,inconclusive: 1.4 nM
9,O=C(Nc1cccnc1)c1c(F)c(F)c(F)c(F)c1F,inconclusive: 2.3 nM
10,COC(=O)C1=C(C)NC(=O)CC1c1cc(Br)ccc1F (stereo unspecified),inconclusive: 1.3 nM
11,CCc1nnc(NC(=O)c2ccc(S(=O)(=O)NCC(C)C)cc2)s1,inconclusive: 1.1 nM
12,COc1ccc2[nH]c(=O)c(CN(CC3CCCO3)C(=O)Nc3ccccc3)cc2c1 (stereo unspecified),inactive
13,CSc1nnc(-c2cnccn2)n1CCCN1CCCC1=O,inconclusive: 1.3 nM
14,Nn1c(SCc2csc(-c3ccccc3)n2)nnc1-c1cccs1,inconclusive: 1.7 nM
15,Cc1cc(Cl)ccc1OCC(=O)Nn1c(C)ccc1C,inconclusive: 1.2 nM
16,COc1cc(NC(=O)c2ccccc2)cc(OC)c1,inconclusive: 1.2 nM
17,N[C@@H](CSc1nc2ccccn2c1[N+](=O)[O-])C(=O)O,inconclusive: 1.8 nM
18,CCn1c(COc2ccccc2)nnc1SCC(=O)Nc1ccc2c(c1)OCCO2,inconclusive: 1.1 nM
19,Cc1cc(C)n(-c2ccc(Cl)c(C(=O)O)n2)n1,inactive
20,NC(=O)C1(N2CCCCC2)CCN(Cc2nc3ccccc3c(=O)[nH]2)CC1,inconclusive: 1.4 nM
